The nature of this experiment: qHTS Assay for Modulators of Lamin A Splicing. The settings on record: HeLa LMNA splicing GFP/RFP minigene ratio, 48 h. An outline of the steps: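 S3 HeLa cells stably expressing lamin A-EGFP splicing minigene plus DsRed2, 600 cells/well, 48 h compound exposure at 37C. Laser-scanning cytometry; analysed as GFP (500-530 nm)/RFP (575-640 nm) total intensity ratio; 0.5% DMSO vehicle.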

Where [1] appears, read: measured here: RFP viability control channel.
[2] abbreviates: measured here: GFP splicing reporter channel.

The list shows a part of the results. The main result of the screen is listed elsewhere. These columns were measured beside it and carry no call. Most of these compounds were active or inconclusive in the main read-out, so they are no random draw. Potencies come from curve fits of mixed quality, noted in brackets.

In general, AC50 refers to the concentration at which the activity in the assay is half-maximal. Regarding `c1ccc2c(Oc3ccc4c(c3)OCO4)nncc2c1`, under setting [1], the AC50 is 11.2 µM [rising, partial curve, poor fit].

For the molecule `c1ccc2nc(C3=NCCN3)ccc2c1`, the AC50 is 6.31 µM [falling, partial curve, poor fit] under setting [2] and 5.62 µM [falling, single point] under setting [1].

Regarding `NC(=O)Cc1nc(-c2ccc(Br)cc2)cs1`, under setting [1], the AC50 was 31.6 µM [rising, single point].

Take `CCOC(=O)c1c(C)oc2nc(C)nc(Nc3cccc(OC)c3)c12`: the AC50 under setting [2] is 2.24 µM [rising, full curve, poor fit].

On to `CCc1nnc(NC(=O)Cn2ccc(C(F)(F)F)n2)s1`, for which the AC50 under setting [1] was 3.98 µM [rising, single point].

Regarding `CCOc1cc2c(cc1OCC)C(c1ccccc1)N(c1ccc(C(=O)O)cc1)C(=O)C2` (centres undefined), the half-maximal activity concentration (AC50) under setting [2] was 5.62 µM [falling, single point] and the AC50 under setting [1] is 5.62 µM [falling, single point].

Turning to `CN1[C@@H]2CC[C@H]1CC(OC(c1ccccc1)c1ccccc1)C2` (some centres undefined), the AC50 was 7.08 µM [rising, partial curve] under setting [2] and 12.6 µM [rising, partial curve, poor fit] under setting [1].

As for `CN1C(=O)Cc2cc(S(=O)(=O)NCc3cccs3)ccc21`, the AC50 under setting [1] is 0.0316 µM [falling, full curve, poor fit].

With `Cc1ccc2c(c1)C(=O)C(=O)N2CCOc1ccccc1`, the AC50 under setting [1] is 25.1 µM [falling, single point].

For the molecule `S=C(Nc1ccccc1Cl)N(CCN1CCCCC1)Cc1ccco1`, the AC50 under setting [2] was 35.5 µM [rising, single point].

`O=C(NCc1cccnc1)c1ccc(COc2ccccc2Cl)cc1`: the AC50 is, setting by setting: under setting [2], 6.31 µM [falling, single point]; under setting [1], 31.6 µM [rising, single point].

For `Cc1cc(-c2nnc(CCC(=O)NC(C)c3cccc4ccccc34)o2)no1` (centres undefined), the AC50 runs as follows: under setting [2], 2.51 µM [falling, partial curve, poor fit]; under setting [1], 0.2 µM [falling, full curve, poor fit].

`O=C1CCC(/C=C/c2ccccc2)=NN1Cc1ccc(F)cc1`: the AC50 is, setting by setting: under setting [2], 17.8 µM [falling, partial curve]; under setting [1], 10 µM [falling, partial curve].

As for `O=C(CSc1nc(-c2cccs2)cc(C(F)(F)F)n1)Nc1cc(OCC(F)(F)F)cc([N+](=O)[O-])c1`, the AC50 reads like this: under setting [2], 10 µM [rising, partial curve]; under setting [1], 12.6 µM [rising, partial curve].

For the molecule `O=C(Nc1cccc(S(=O)(=O)c2cccc(NC(=O)C3CC3)c2)c1)C1CC1`, the AC50 under setting [1] was 11.2 µM [rising, partial curve].

For the molecule `Cc1ccc(S(=O)(=O)Nc2ccc(C(=O)Nc3ccncc3)cc2)cc1`, the AC50 is, setting by setting: under setting [2], 7.08 µM [rising, partial curve]; under setting [1], 15.8 µM [rising, partial curve].

For the molecule `CCOc1ccc(CNS(=O)(=O)c2ccc3[nH]c4c(c3c2)CCCC4)cc1OC`, the AC50 was 10 µM [falling, partial curve] under setting [2] and 10 µM [falling, partial curve] under setting [1].

For the molecule `Cc1ccc(S(=O)(=O)c2ccc(Cl)cc2)cc1S(=O)(=O)N1CCOCC1`, the AC50 was 25.1 µM [rising, single point] under setting [2] and 35.5 µM [rising, single point] under setting [1].

Consider `COc1ccc(CN2CN(C(C)C)CSC2=S)cc1`, for which the AC50 is 10 µM [falling, partial curve, poor fit] under setting [2] and 7.08 µM [falling, full curve] under setting [1].

`O=C(CCN1CCC(c2ccccc2)C1)c1ccc2c(c1)OCCO2` (centres undefined): the AC50 reads like this: under setting [2], 35.5 µM [falling, single point]; under setting [1], 3.55 µM [falling, partial curve].

Take `COc1ccc(CCNC(=O)CCCn2nc(C)c([N+](=O)[O-])c2C)cc1OC`: the AC50 under setting [2] is 0.224 µM [rising, full curve, poor fit].

On to `CCn1c(SCC(=O)Nc2ccccc2OC)nc2ccccc2c1=O`, for which the AC50 under setting [1] is 15.8 µM [rising, single point].

Take `Cn1c(=O)oc2cc(S(=O)(=O)N3CCCC(C(=O)N4CC=C(c5ccccc5)CC4)C3)ccc21` (centres undefined): the AC50 under setting [1] is 11.2 µM [rising, partial curve].

On to `O=C(C[n+]1ccccc1)N/N=C/c1ccccc1[N+](=O)[O-]`, for which the AC50 under setting [2] is 35.5 µM [rising, single point].

On to `O=c1cc(N2CCN(Cc3ccccc3)CC2)c(-c2ccccc2)n[nH]1`, for which the AC50 under setting [2] was 0.708 µM [falling, single point].

In the case of `O=C(NC(=S)N1CCN(c2ccc([N+](=O)[O-])cc2)CC1)c1ccco1`, the AC50 under setting [1] was 0.00447 µM [falling, full curve, poor fit].

For the molecule `COC(=O)/C=C/C(=O)Nc1ccc(O)c(Cl)c1`, the AC50 runs as follows: under setting [2], 11.2 µM [rising, partial curve, poor fit]; under setting [1], 14.1 µM [rising, single point].

As to `CCCn1c(=O)c(C(=O)NNS(=O)(=O)c2ccc(C)cc2)c(O)c2ccccc21`, under setting [1], the AC50 is 25.1 µM [rising, single point].

For `COc1ccc(/C=N/NC(=O)CCn2cnc(-c3ccccc3)c2-c2ccccc2)cc1`, the AC50 under setting [2] was 12.6 µM [rising, partial curve] and the AC50 under setting [1] was 5.01 µM [rising, partial curve].

On to `O=C(Nc1ccccc1)/C(=C/c1ccccc1)c1ccccc1`, for which the AC50 under setting [2] was 35.5 µM [falling, single point] and the AC50 under setting [1] is 35.5 µM [falling, single point].

For the molecule `O=C(Nc1nc(-c2cccs2)cs1)c1cccc(S(=O)(=O)N2CCCCC2)c1`, the AC50 is 8.91 µM [rising, partial curve] under setting [2] and 6.31 µM [rising, full curve] under setting [1].

Take `O=C(CC(c1ccccc1)c1ccccc1)N1CCN(c2ccccn2)CC1`: the AC50 under setting [2] is 14.1 µM [rising, partial curve, poor fit].

For `CCOc1ccc(C(=O)/C=C/c2cc(OC)c(OC)c(OC)c2)cc1`, the AC50 under setting [1] is 35.5 µM [falling, partial curve].

`CCOc1ccc(-n2c(-c3ccc(Cl)cc3)c[n+]3c2SCC3)cc1`: under setting [2], the AC50 was 22.4 µM [falling, partial curve, poor fit].

For `COc1cc(-c2nc(-c3cccc(C)c3)no2)cc(OC)c1OC`, the concentration at half-maximal activity (AC50) under setting [1] is 17.8 µM [rising, partial curve, poor fit].

On to `O=C(Nc1ccc(Cl)cc1)Nc1cc(S(=O)(=O)N2CCOCC2)ccc1N1CCCC1`, for which the AC50 reads like this: under setting [2], 11.2 µM [rising, single point]; under setting [1], 12.6 µM [rising, single point].

Consider `COc1cc(CCC(=O)Nc2ccc(Cl)c(C(F)(F)F)c2)cc(OC)c1OC`, for which the AC50 is, setting by setting: under setting [2], 2.51 µM [rising, partial curve]; under setting [1], 20 µM [rising, partial curve].

On to `Cc1cc(C)c(S(=O)(=O)N2CCOC2CNC(=O)C(=O)NCc2cccnc2)c(C)c1` (centres undefined), for which the AC50 under setting [1] is 12.6 µM [rising, single point].

With `CCC(C)(C)NC(=O)CCCSc1nc2ccccc2s1`, the AC50 under setting [2] is 1 µM [falling, partial curve].

In the case of `COCc1cc(=O)[nH]c(Sc2c(-c3ccccc3)c3ccc(Cl)cc3[nH]c2=O)n1`, under setting [1], the concentration at half-maximal activity (AC50) is 6.31 µM [rising, single point].

Regarding `C=COCCNC(=O)Nc1ccc(Cl)c(Cl)c1`, the AC50 under setting [1] is 14.1 µM [rising, partial curve].

On to `O=C(c1ccc(COc2ccc(Cl)cc2)o1)N1N=C(C(F)F)CC1(O)C(F)F` (centres undefined), for which the AC50 reads like this: under setting [2], 11.2 µM [rising, partial curve]; under setting [1], 22.4 µM [rising, single point].

Take `CC(C)C(NC(=O)C1CCC(C(C)(C)C)CC1)C(=O)NCc1cccnc1` (centres undefined): the AC50 under setting [1] is 20 µM [rising, single point].

Consider `Cc1ccc(NC(=O)C(=O)NCC(c2cccnc2)N2CCOCC2)cc1C` (centres undefined), for which the AC50 by setting is: under setting [2], 35.5 µM [falling, single point]; under setting [1], 35.5 µM [falling, single point].

Take `CCOC(=O)N1CCN(CCC(=O)Nc2ccc(C)c(Br)c2)CC1`: the AC50 was 35.5 µM [rising, single point] under setting [2] and 31.6 µM [rising, single point] under setting [1].

Consider `Brc1ccc(CN2C3=NCCCN3c3ccccc32)cc1`, for which the AC50 is 8.91 µM [rising, partial curve, poor fit] under setting [2] and 10 µM [rising, partial curve, poor fit] under setting [1].

Turning to `O=C(Nc1cc(Sc2nc3ccccc3s2)cc([N+](=O)[O-])c1)c1cccc(F)c1F`, under setting [1], the AC50 was 35.5 µM [rising, single point].

As for `CCc1ccccc1N1C(=O)C2C3CC(=O)C(c4ccccc43)C2C1=O` (centres undefined), the AC50 is, setting by setting: under setting [2], 0.0398 µM [rising, full curve]; under setting [1], 0.398 µM [rising, partial curve].

Regarding `O=C(Cc1coc2cc3c(cc12)CCC3)NC1CCCCCCC1`, the AC50 under setting [1] was 22.4 µM [rising, partial curve].

For the molecule `COc1cc(/C=C/C(=O)c2ccc(NS(=O)(=O)c3ccc(C)cc3)cc2)cc(OC)c1O`, the half-maximal activity concentration (AC50) was 22.4 µM [falling, single point] under setting [2] and 14.1 µM [falling, single point] under setting [1].

As for `COc1ccc2nc(NC(=O)CSc3nc(SC)ns3)sc2c1`, the AC50 under setting [1] is 25.1 µM [rising, single point].

As for `COC(=O)CCCNc1ncccc1[N+](=O)[O-]`, the AC50 was 35.5 µM [rising, single point] under setting [2] and 17.8 µM [rising, partial curve] under setting [1].

As for `COc1ccc(OC)c(NC(=S)N2CCC(C(O)(c3ccccc3)c3ccccc3)CC2)c1`, the AC50 under setting [1] is 35.5 µM [rising, single point].

For the molecule `COc1cc2oc3ccccc3c2cc1N(CC(=O)N1CCCCC1)S(=O)(=O)c1ccc(C)cc1`, the AC50 under setting [2] was 3.16 µM [rising, single point].
